From article doi:10.1101/2022.06.03.494746

How the values were obtained:
[1] = molecular target: DCP1-TurboID-6xHis-3xFLAG (Arabidopsis); assay: affinity purification with mass spectrometry
[2] = molecular target: DCP1-TurboID-6xHis-3xFLAG (Arabidopsis); assay: proximity labelling

binding [1]: no binding
binding [2]: no binding
B1: Ras-related protein Rab-A5c (protein, UniProt P28187 1-214)
chain: MSDDDERGEEYLFKIVIIGDSAVGKSNLLTRYARNEFNPNSKATIGVEFQTQSMLIDGKEVKAQIWDTAGQERFRAVTSAYYRGAVGALVVYDITRSSTFENVGRWLDELNTHSDTTVAKMLIGNKCDLESIRAVSVEEGKSLAESEGLFFMETSALDSTNVKTAFEMVIREIYSNISRKQLNSDSYKEELTVNRVSLVKNENEGTKTFSCCSR

No constants are given. Whether binding was seen depends on the method and setting. In cells and extracts the contact can be indirect. A yes stands for co-enrichment or nearness to the bait. Other partners may have been found. A no says only that the protein was not detected with the bait.
